These are yes or no findings as the source states them, for the method shown. Binding seen in cells or lysates may run through a third protein. Some entries that bind do so weakly or less than the wild type.
Tests used:
[1] = target: AT1 angiotensin II receptor, wild type, Luciferase-tagged (AT1R-RLuc8) (UniProt P25095); test: FRET or BRET; BRET between AT1R-Luciferase and mVenus-tagged β-arrestins or their AP2-binding mutants in living β-arrestin1/2 double KO HEK293 cells; 100 nM AngII, then 30 μM Losartan (or DMSO) after 5 min to follow dissociation; 37°C, modified Krebs-Ringer buffer pH 7.4
[2] = target: AT1 angiotensin II receptor, wild type, Luciferase-tagged (AT1R-RLuc8) (UniProt P25095); test: FRET or BRET; BRET between AT1R-Luciferase (wild type or DRY mutant) and mVenus-tagged β-arrestins in living β-arrestin1/2 double KO HEK293 cells; stimulation with 100 nM AngII; 37°C, modified Krebs-Ringer buffer pH 7.4, 5 μM coelenterazine h; ratios against DMSO-treated cells, AUC compared

Amino acid sequences for entries named in this document (tags omitted). A change or cut given only in a name is not applied to a line headed by its entry.
UniProt P25095: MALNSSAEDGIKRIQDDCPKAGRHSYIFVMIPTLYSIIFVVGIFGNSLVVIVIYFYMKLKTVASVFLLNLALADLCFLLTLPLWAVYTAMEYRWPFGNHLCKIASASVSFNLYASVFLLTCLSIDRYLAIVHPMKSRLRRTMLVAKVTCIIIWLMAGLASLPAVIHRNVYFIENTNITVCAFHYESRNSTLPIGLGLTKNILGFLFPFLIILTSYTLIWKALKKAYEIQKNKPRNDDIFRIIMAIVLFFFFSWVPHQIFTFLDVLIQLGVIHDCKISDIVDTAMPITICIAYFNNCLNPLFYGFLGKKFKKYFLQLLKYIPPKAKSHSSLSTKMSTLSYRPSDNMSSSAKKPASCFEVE
UniProt P29066: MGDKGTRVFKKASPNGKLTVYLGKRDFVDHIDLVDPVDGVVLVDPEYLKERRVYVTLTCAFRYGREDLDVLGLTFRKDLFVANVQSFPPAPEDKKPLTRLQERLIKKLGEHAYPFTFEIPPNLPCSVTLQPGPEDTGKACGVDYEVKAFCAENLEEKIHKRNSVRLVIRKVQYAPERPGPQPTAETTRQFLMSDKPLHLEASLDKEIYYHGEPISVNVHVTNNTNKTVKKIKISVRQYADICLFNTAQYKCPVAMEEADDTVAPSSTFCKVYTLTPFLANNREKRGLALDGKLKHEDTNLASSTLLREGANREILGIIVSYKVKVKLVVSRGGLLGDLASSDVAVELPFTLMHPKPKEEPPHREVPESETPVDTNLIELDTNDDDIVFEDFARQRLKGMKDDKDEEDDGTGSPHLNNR
UniProt P29067: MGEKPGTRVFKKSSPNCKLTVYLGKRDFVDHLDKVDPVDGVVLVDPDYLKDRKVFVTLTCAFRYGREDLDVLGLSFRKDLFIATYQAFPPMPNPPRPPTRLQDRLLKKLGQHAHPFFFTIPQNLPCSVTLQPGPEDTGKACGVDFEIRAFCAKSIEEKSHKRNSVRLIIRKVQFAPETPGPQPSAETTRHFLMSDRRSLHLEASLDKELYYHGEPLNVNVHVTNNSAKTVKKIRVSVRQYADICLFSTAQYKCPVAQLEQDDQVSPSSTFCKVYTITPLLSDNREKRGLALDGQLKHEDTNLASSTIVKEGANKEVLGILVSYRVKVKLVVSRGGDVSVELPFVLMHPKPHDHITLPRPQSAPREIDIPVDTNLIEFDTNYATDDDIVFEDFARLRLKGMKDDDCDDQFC

binding [1] | binding [2] | Substance
binds |  | AP2-binding mutant β-arrestin1-mVenus (R393A/R395A) (from UniProt P29066 1-418)
binds |  | AP2-binding mutant β-arrestin2-mVenus (R394A/R396A) (from UniProt P29067 1-410)
binds | binds | β-arrestin1-mVenus (rat β-arrestin1, wild type) (from UniProt P29066 1-418)
binds | binds | β-arrestin2-mVenus (rat β-arrestin2, wild type) (from UniProt P29067 1-410)

From paper doi:10.1101/2025.03.28.645988
